Values quoted from earlier work as cited in US20220339103A1, “Lung-targeted corticosteroid treatment in viral respiratory disease, COVID-19 and ARDS (acute respiratory distress syndrome)” (Bodor Laboratories, Inc., priority 2021, published 2022).

Key:
[1] = test system: airway eosinophilia / thymus weight; conditions: intrapulmonal; dose reducing thymus weight / dose causing about 50-60% inhibition of airway eosinophilia, Brown Norway rats
[2] = test system: cotton pellet granuloma; conditions: ratio of relative potencies, cotton pellet granuloma test

Compound | Ratios between the lowest side-effect-inducing dose and a moderately effective therapeutic dose [1] | TI, therapeutic index [2]
CCC(=O)OCC(=O)[C@@]1(OC(=O)CC)[C@@H](C)C[C@H]2[C@@H]3CCC4=CC(=O)C=C[C@]4(C)[C@@]3(Cl)[C@@H](O)C[C@@]21C [Beclomethasone Dipropionate] | 0.3 | –
CCCCC(=O)O[C@]1(C(=O)CO)[C@@H](C)C[C@H]2[C@@H]3CCC4=CC(=O)C=C[C@]4(C)[C@@]3(F)[C@@H](O)C[C@@]21C [Betamethasone 17α-valerate (BV) (0.12%), Betamethasone 17α-valerate] | – | 1.0
CCC(=O)O[C@]1(C(=O)CCl)[C@@H](C)C[C@H]2[C@@H]3CCC4=CC(=O)C=C[C@]4(C)[C@@]3(F)C(=O)C[C@@]21C [Clobetasone-17α-propi onate (KP) (0.1%), Clobetasone-17α-propi onate] | – | 1.5
CCCC(=O)O[C@]1(C(=O)CO)CC[C@H]2[C@@H]3CCC4=CC(=O)CC[C@]4(C)[C@H]3[C@@H](O)C[C@@]21C [Hydrocortisone 17α-butyrate (HB) (0.1%), Hydrocortisone 17α-butyrate] | – | 1.3
CCOC(=O)O[C@]1(C(=O)OCCl)CC[C@H]2[C@@H]3CCC4=CC(=O)C=C[C@]4(C)[C@H]3[C@@H](O)C[C@@]21C [Loteprednol Etabonate, chloromethyl 17α-ethoxycarbonyloxy-11β-hydroxyandrosta-1,4-dien-3-one-17β-carboxylate] | 40 | 24.0
